Experimental data reported in patent US8636983B2, “Aminoglycoside and fosfomycin combination for treatment of ventilator associated pneumonia (VAP) and ventilator associated tracheal (VAT) bronchitis” (priority 2011, dated 2014).
Some entries share one result that the patent states for a list of compounds.

Assay: Predicted peak airway concentrations from delivered dose
Conditions: amikacin: most Gram negative organisms; fosfomycin: Staphylococcus aureus

SMILES	predicted concentration, times the MIC 90
NCC[C@H](O)C(=O)N[C@@H]1C[C@H](N)[C@@H](O[C@H]2O[C@H](CN)[C@@H](O)[C@H](O)[C@H]2O)[C@H](O)[C@H]1O[C@H]1O[C@H](CO)[C@@H](O)[C@H](N)[C@H]1O [Amikacin, amikacin]	greater than 25 times
C[C@@H]1O[C@@H]1P(=O)(O)O [Fosfomycin, fosfomycin]	greater than 25 times
